PubChem BioAssay AID504784 | Drosophila RNAi Screening Center – 2011
The screen tested about 17,000 reagents; below is a random part of those that have a named target and a result. 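Each column is one replicate's B-score; the combined score over replicates was not deposited, so single values may mislead.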 Further read-outs or replicates are left out here.

Purpose: 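Search for regulators of lipid droplet storage in oleate-fed fly cells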 (primary screen)
Cell system: Drosophila Kc167 embryonic cells
Reagent: long dsRNA against Drosophila genes, about 250 ng dsRNA per well
Timing: 4 days
Challenge: cells fed 400 µM oleic acid bound to BSA
Measurement: 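Microscope images give a droplet-to-nucleus area ratio, taken as log and converted to a screen-wide B-score; higher values mean greater lipid storage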
Scale: droplet/nuclear area B-score: higher = more stored lipid (overstorage)

For CG34199 [DRSC05867], how do the results read?
droplet/nuclear area B-score, replicate 1: 0.41

With Naxd [DRSC09722], what was measured?
droplet/nuclear area B-score, replicate 1: 0.361

Which result is listed for CG17290 [DRSC06662]?
droplet/nuclear area B-score, replicate 1: -1.97

What did the screen give for CG14069 [DRSC02372]?
droplet/nuclear area B-score, replicate 1: -0.767

What is on record for CG33474 [DRSC05218]?
droplet/nuclear area B-score, replicate 1: -0.37

What is on record for SLIRP2 [DRSC16363]?
droplet/nuclear area B-score, replicate 1: -0.0564

What did the screen give for Ent2 [DRSC02124]?
droplet/nuclear area B-score, replicate 1: -1.35

Which result is listed for CG9967 [DRSC00742]?
droplet/nuclear area B-score, replicate 1: 0.226

For CG1722 [DRSC20547], how do the results read?
droplet/nuclear area B-score, replicate 1: -0.422

How did the screen score CG6550 [DRSC07001]?
droplet/nuclear area B-score, replicate 1: -0.228

How did the screen score Cyp28d1 [DRSC03298]?
droplet/nuclear area B-score, replicate 1: -0.721

For Cyp28d1 [DRSC21331], what was measured?
droplet/nuclear area B-score, replicate 1: 1.39

What is on record for CG9360 [DRSC20180]?
droplet/nuclear area B-score, replicate 1: -0.469

Which result is listed for CG8343 [DRSC04905]?
droplet/nuclear area B-score, replicate 1: -1.71

What did the screen give for CG43322 [DRSC02280]?
droplet/nuclear area B-score, replicate 1: 0.257

For CG42562 [DRSC06453], how do the results read?
droplet/nuclear area B-score, replicate 1: -0.0496

For Gpo2 [DRSC06822], what does the deposit list?
droplet/nuclear area B-score, replicate 1: 1.06

For CG7102 [DRSC02647], what was measured?
droplet/nuclear area B-score, replicate 1: -0.0297

For CG7102 [DRSC03007], how do the results read?
droplet/nuclear area B-score, replicate 1: 1.63

What did the screen give for Pde9 [DRSC19746]?
droplet/nuclear area B-score, replicate 1: -1.41

What did the screen give for Pde9 [DRSC19874]?
droplet/nuclear area B-score, replicate 1: -0.112

What is on record for Pde9 [DRSC19875]?
droplet/nuclear area B-score, replicate 1: 1.87

For Pde9 [DRSC19876], what does the deposit list?
droplet/nuclear area B-score, replicate 1: -1.88

For sfl [DRSC08828], what does the deposit list?
droplet/nuclear area B-score, replicate 1: -1.59

What did the screen give for sfl [DRSC08830]?
droplet/nuclear area B-score, replicate 1: -0.619

With Arpc3A [DRSC15596], how do the results read?
droplet/nuclear area B-score, replicate 1: 0.0224

What is on record for CG8206 [DRSC20093]?
droplet/nuclear area B-score, replicate 1: 0.0315

For Srrm1 [DRSC09835], what does the deposit list?
droplet/nuclear area B-score, replicate 1: -1.45

What is on record for rhi [DRSC05996]?
droplet/nuclear area B-score, replicate 1: 0.157

Which result is listed for Toll-7 [DRSC07563]?
droplet/nuclear area B-score, replicate 1: -1.12

With CG30496 [DRSC06805], what was measured?
droplet/nuclear area B-score, replicate 1: 0.683

What did the screen give for Polr1H [DRSC14594]?
droplet/nuclear area B-score, replicate 1: 1.47

What did the screen give for Myt1 [DRSC11228]?
droplet/nuclear area B-score, replicate 1: -1

With CG17752 [DRSC15262], what was measured?
droplet/nuclear area B-score, replicate 1: 2.66

With CR14033 [DRSC02358], how do the results read?
droplet/nuclear area B-score, replicate 1: 1.07

What is on record for Pdf [DRSC16786]?
droplet/nuclear area B-score, replicate 1: 0.0948

For Fer1 [DRSC12507], how do the results read?
droplet/nuclear area B-score, replicate 1: 1.27

With Fer1 [DRSC12555], what does the deposit list?
droplet/nuclear area B-score, replicate 1: -0.832

What did the screen give for CYLD [DRSC02870]?
droplet/nuclear area B-score, replicate 1: -0.283

For Cyp18a1 [DRSC20235], what does the deposit list?
droplet/nuclear area B-score, replicate 1: 0.608

Laid out differently: results already given.
gene,dsRNA,"droplet/nuclear area B-score, replicate 1"
Arpc3A,DRSC15596,0.0224
CG8206,DRSC20093,0.0315
Srrm1,DRSC09835,-1.45
rhi,DRSC05996,0.157
